PubChem BioAssay AID1224828, NIAID, 2016
This is a random part of about 17,000 reagents. 762 of them (4.5%) count as active. 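Active calls include both raised and lowered p65 entry, mostly lowered; wells with fewer than 50 cells lack a z-score.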 Raw values vary from plate to plate and are shown uncorrected. Entries without a mark were called inactive.

Test: 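Knock-downs that increase or decrease LPS-induced p65 nuclear translocation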 (primary screen)
Cell system: mouse RAW264.7 G9 macrophage reporter cells (GFP-p65, Tnf promoter-mCherry)
Knock-down reagent: siRNA pool against mouse genes, 100 nM
Timing: 2 days siRNA transfection, then 40 min LPS before fixation
Treatment: LPS (Salmonella minnesota R595) at 10 ng/ml
Measured: 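Imaged p65 nuclear translocation ratio, normalised to the plate median, converted to robust z-scores and averaged across two replicates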
Direction: p65 translocation robust z-score: higher = more nuclear NF-kappaB p65 after LPS than the plate median; nuclear/cytoplasmic p65 ratio: higher = more nuclear NF-kappaB p65
Call rule: 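Called active when z exceeds 3.3 or falls under -1.56 (median of Tlr4 controls), giving activity score of at least 50; no calls for control wells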
Calls: active = hit (p65 shift raised or lowered); inactive = no clear change

gene knocked down	p65 translocation robust z-score	nuclear/cytoplasmic p65 ratio, rep 1	nuclear/cytoplasmic p65 ratio, rep 2	low cell count flag
Kpna4	-0.67	1.33	1.34	enough cells to score
Nefm	-0.72	1.73	1.43	enough cells to score
Samd9l	0.67	1.74	1.68	enough cells to score
Gpr55	-0.03	1.5	1.58	enough cells to score
Stx4a	-0.22	1.34	1.25	enough cells to score
Fjx1	0.42	1.49	1.54	enough cells to score
Ran		1.35	0.954	fewer than 50 cells per well; well left out of scoring
Hdlbp	0.1	1.57	1.28	enough cells to score
Pcbd1	0.71	1.56	1.4	enough cells to score
Carm1	-0.29	1.52	1.76	enough cells to score
Ttll9		1.35	1.33	fewer than 50 cells per well; well left out of scoring
Vegfa	-0.34	1.42	1.5	enough cells to score
Sox2	-1.72 (active)	1.36	1.25	enough cells to score
9330119M13Rik	0.43	1.48	1.55	enough cells to score
Vsx1	0.72	1.6	1.61	enough cells to score
Ift74	0.25	1.67	1.78	enough cells to score
Cox7a2l	0.81	1.74	1.86	enough cells to score
Ppargc1b	0.46	1.62	1.41	enough cells to score
Eml3	-0.26	1.54	1.8	enough cells to score
Olig2	0.21	1.53	1.39	enough cells to score
Dusp22	-1.51	1.24	1.19	enough cells to score
Klrb1f	-0.78	1.2	1.42	enough cells to score
Krt27	-0.97	1.25	1.44	enough cells to score
Bmp2k	-0.11	1.61	1.42	enough cells to score
Sf1		1.41	1.23	fewer than 50 cells per well; well left out of scoring
Pla2g2d	-0.43	1.41	1.38	enough cells to score
Icam5	0.91	1.57	1.48	enough cells to score
Slc41a1		1.19	1.07	fewer than 50 cells per well; well left out of scoring
A030005L19Rik	-1.28	1.18	1.38	enough cells to score
Ndst1	-2.61 (active)	1.44	1.14	enough cells to score
Rp2	1.69	1.91	1.62	enough cells to score
Apba3	1.41	1.68	1.84	enough cells to score
Alcam	0.31	1.65	1.68	enough cells to score
Rpl22l1		1.09	1.18	fewer than 50 cells per well; well left out of scoring
Serpinb8		1.28	1.08	fewer than 50 cells per well; well left out of scoring
Aoc3	-1.05	1.48	1.49	enough cells to score
4930486L24Rik	-0.25	1.34	1.28	enough cells to score
Btnl10	1.54	1.7	1.68	enough cells to score
Vps37a	1.42	1.77	1.76	enough cells to score
Acad11	1.27	1.53	1.63	enough cells to score

Quoted from the entries so far, 3 entries:
gene knocked down	p65 translocation robust z-score	nuclear/cytoplasmic p65 ratio, rep 1	nuclear/cytoplasmic p65 ratio, rep 2	low cell count flag
Slc41a1		1.19	1.07	fewer than 50 cells per well; well left out of scoring
A030005L19Rik	-1.28	1.18	1.38	enough cells to score
Ndst1	-2.61 (active)	1.44	1.14	enough cells to score
